Consider 60 targets from the supplement of paper PMC6411743.

Protein sequences, listed by entry. Tags and fused reporters are not part of them. Lines headed by an entry give the natural chain unless they say otherwise; changes in a name come on top.
UniProt Q7LGA3: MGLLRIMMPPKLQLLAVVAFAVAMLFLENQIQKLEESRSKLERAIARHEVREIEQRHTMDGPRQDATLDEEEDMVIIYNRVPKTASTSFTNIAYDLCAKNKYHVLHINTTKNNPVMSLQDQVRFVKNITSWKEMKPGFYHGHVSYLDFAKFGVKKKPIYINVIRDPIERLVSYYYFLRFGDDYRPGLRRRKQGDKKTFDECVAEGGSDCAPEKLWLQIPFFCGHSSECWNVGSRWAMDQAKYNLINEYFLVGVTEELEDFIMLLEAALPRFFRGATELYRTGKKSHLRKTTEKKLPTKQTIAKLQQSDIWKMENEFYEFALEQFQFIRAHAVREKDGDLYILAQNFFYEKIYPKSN
UniProt Q7LBR1: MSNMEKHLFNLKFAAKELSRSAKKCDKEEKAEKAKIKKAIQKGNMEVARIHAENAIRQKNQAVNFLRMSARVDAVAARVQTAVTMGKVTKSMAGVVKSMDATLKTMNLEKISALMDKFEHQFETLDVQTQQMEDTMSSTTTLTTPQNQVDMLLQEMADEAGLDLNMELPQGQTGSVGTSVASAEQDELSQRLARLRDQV
UniProt Q86TM6, whole entry: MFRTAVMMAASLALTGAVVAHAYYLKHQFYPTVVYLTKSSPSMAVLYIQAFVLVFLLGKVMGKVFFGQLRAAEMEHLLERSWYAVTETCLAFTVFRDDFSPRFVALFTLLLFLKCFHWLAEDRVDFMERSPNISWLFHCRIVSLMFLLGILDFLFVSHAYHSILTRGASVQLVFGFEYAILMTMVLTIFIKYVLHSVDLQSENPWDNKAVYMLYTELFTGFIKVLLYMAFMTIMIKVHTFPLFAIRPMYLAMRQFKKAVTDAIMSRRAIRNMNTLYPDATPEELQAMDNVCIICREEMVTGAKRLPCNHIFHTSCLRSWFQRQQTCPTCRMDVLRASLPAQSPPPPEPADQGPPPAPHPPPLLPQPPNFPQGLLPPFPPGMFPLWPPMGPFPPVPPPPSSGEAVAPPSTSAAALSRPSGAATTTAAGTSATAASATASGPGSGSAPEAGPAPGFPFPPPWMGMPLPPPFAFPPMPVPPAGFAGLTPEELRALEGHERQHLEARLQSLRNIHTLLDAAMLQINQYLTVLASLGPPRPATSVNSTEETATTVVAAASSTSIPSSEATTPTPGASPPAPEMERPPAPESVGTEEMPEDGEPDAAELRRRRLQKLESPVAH
UniProt Q7KZF4: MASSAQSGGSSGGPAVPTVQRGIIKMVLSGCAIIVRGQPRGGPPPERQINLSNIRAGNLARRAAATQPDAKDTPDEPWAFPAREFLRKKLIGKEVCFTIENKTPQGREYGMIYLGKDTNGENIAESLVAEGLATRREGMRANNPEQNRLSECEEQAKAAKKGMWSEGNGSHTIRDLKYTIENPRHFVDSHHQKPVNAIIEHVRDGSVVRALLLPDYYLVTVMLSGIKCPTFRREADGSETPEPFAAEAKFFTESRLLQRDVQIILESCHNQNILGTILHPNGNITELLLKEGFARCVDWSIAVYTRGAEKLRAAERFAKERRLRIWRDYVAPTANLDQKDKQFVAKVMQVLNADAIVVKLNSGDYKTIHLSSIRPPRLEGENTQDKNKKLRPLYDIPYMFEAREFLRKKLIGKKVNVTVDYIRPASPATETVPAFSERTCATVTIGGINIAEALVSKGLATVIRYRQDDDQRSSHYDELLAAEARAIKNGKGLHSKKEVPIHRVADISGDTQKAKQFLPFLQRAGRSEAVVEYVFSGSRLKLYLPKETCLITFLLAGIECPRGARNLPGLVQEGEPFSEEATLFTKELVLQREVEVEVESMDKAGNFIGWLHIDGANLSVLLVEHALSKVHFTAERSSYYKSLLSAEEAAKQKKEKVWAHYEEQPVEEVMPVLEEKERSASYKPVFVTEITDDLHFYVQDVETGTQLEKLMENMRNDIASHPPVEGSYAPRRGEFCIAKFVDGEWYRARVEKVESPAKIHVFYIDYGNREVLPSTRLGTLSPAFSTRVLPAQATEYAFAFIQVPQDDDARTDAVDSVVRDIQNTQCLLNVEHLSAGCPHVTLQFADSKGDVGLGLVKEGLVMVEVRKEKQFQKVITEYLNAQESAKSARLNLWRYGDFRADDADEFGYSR
UniProt Q7Z6I6: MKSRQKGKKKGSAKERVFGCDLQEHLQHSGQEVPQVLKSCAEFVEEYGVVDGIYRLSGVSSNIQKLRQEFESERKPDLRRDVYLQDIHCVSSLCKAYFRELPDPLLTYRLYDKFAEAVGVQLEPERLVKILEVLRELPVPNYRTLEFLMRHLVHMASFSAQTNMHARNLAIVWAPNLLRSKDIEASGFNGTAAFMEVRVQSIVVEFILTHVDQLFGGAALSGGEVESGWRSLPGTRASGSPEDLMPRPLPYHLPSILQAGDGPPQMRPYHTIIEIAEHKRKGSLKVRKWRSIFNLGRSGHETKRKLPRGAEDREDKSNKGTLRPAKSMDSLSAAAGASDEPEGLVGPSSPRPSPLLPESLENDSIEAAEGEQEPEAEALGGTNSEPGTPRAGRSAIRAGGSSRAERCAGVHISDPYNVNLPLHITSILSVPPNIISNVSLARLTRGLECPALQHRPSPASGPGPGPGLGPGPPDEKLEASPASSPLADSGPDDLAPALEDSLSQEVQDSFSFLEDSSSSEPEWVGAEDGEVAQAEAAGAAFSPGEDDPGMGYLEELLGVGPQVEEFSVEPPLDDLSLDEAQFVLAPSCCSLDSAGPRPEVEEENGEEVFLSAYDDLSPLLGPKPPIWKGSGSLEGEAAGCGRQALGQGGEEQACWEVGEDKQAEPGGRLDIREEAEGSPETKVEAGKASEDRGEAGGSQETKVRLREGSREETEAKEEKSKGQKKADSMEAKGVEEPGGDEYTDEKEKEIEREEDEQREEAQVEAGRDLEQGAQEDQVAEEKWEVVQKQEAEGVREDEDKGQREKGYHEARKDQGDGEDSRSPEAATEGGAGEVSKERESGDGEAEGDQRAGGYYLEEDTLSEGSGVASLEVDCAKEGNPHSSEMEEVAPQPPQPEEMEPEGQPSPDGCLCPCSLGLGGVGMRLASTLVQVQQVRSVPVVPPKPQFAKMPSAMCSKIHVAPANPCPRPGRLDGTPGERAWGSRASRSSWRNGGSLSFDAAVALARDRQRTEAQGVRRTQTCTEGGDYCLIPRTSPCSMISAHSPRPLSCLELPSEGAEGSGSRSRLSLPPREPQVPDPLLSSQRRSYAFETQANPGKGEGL
UniProt Q86UB9: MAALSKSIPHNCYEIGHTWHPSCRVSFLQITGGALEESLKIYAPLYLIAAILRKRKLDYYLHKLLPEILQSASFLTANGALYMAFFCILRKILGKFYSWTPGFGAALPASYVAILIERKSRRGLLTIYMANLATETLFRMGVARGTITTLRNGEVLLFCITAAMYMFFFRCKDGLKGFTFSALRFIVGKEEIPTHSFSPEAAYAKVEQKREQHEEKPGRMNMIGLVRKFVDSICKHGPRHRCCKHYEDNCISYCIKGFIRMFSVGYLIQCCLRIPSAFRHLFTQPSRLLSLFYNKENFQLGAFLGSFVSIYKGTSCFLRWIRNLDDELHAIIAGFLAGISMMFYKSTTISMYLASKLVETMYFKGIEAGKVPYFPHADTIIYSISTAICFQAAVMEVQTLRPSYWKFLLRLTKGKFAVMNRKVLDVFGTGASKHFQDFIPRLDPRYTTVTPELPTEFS
UniProt Q86WQ0: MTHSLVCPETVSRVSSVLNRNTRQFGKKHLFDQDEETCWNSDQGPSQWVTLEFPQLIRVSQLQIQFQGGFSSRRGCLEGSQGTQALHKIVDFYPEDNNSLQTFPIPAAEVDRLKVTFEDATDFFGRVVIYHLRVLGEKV
UniProt Q7L3T8: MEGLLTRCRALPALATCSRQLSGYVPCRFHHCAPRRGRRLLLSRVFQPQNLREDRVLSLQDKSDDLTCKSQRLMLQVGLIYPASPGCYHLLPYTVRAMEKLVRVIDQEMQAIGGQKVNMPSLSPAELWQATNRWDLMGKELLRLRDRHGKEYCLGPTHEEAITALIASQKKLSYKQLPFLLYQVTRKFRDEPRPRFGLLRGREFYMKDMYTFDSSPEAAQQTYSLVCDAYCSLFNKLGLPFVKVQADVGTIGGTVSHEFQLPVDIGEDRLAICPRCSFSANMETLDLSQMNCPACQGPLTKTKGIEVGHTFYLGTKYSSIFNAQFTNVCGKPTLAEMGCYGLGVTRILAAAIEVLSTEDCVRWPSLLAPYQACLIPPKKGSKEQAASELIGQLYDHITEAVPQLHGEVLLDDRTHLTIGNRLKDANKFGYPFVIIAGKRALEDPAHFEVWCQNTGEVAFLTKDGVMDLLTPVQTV
UniProt Q6ZNE5, whole entry: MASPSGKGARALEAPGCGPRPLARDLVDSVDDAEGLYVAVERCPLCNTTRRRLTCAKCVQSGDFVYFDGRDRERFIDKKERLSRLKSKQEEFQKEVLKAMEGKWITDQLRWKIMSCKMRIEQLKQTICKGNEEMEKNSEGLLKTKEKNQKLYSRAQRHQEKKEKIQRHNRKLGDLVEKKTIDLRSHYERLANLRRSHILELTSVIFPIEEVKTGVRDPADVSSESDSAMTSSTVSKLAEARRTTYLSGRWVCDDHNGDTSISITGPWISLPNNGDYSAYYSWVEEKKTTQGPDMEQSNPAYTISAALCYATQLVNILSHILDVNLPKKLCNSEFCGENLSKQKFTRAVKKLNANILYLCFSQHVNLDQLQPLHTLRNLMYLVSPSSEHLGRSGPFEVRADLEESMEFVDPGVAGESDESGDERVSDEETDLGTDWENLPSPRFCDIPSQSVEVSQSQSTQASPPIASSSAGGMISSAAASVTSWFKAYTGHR
UniProt Q8IV38: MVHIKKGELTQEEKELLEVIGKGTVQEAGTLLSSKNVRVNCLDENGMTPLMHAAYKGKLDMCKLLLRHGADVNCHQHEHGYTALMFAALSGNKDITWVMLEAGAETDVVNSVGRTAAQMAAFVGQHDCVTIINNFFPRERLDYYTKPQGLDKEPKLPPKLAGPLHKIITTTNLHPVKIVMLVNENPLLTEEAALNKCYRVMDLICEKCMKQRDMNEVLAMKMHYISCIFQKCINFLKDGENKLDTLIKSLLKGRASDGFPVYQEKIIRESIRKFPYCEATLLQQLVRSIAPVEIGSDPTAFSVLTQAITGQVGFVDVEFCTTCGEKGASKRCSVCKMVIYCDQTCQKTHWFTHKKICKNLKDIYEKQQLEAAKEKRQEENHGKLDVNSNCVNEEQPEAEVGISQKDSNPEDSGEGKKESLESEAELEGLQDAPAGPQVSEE
UniProt Q86YC2, whole entry: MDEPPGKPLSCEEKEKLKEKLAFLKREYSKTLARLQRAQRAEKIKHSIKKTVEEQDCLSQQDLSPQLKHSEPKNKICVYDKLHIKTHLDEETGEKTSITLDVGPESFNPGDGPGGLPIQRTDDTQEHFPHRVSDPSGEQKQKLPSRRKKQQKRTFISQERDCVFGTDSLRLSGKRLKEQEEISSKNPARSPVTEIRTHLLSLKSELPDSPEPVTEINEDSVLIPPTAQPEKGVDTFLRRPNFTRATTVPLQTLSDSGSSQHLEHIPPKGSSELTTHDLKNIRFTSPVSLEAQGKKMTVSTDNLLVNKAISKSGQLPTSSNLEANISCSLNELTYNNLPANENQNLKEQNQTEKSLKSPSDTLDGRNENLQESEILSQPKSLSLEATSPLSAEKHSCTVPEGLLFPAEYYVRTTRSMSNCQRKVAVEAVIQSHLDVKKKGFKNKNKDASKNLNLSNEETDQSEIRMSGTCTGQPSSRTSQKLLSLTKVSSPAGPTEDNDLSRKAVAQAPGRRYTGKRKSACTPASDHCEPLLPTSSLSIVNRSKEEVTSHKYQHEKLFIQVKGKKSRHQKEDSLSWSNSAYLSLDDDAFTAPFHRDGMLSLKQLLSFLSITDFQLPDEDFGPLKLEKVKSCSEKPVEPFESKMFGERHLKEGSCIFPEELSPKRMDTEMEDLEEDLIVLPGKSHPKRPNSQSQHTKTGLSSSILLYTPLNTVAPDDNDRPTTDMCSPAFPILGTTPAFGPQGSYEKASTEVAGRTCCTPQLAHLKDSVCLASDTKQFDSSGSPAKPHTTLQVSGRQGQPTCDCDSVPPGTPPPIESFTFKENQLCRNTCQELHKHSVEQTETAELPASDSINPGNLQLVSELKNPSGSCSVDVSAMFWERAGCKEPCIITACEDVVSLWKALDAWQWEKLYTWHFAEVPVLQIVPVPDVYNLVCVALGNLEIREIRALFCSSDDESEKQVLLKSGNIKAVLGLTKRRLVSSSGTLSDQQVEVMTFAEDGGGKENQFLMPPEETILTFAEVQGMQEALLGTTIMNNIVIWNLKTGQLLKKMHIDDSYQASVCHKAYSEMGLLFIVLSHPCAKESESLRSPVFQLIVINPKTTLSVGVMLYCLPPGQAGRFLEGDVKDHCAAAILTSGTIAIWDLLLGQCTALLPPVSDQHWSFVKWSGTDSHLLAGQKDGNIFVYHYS
UniProt Q86YS6: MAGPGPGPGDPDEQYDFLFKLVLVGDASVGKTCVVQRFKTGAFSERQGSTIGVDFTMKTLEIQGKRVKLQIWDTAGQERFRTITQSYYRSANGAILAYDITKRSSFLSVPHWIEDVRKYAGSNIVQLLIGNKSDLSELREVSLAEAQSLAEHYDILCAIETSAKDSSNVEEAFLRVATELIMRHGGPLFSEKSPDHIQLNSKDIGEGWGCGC

Compound in the assay: Nc1ncnc2c1ncn2[C@@H]1O[C@H](COP(=O)(O)OP(=O)(O)OP(=O)(O)O)[C@@H](O)[C@H]1O [adenosine triphosphate]
As to the kind of experiment: NP40-soluble protein abundance relative to vehicle (solubility fold change) (ratio); higher = more soluble protein in presence of ATP. The gist of the method:
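Data come from three independent experiments in which Dounce-homogenised Jurkat crude lysate was treated at eight concentrations from 0.1 to 10 mM. Treatment ran 10 min at room temperature and then 3 min at 37 °C, after which 0.8% NP40 and benzonase were added for 60 min at 4 °C before ultracentrifugation. The supernatant underwent TMT labelling and LC-MS/MS, and vsn-normalised intensities were expressed as fold change against the detergent-processed vehicle in each replicate.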

± gives the standard deviation of the averaged measurements. The list shows a part of the results, in another mix than the full data. Most entries show no effect beyond the scatter of the controls.

For UniProt Q6STE5 and related entries, the NP40-soluble protein abundance was 1.07 ± 0.086 (concentration: 0.1mM) and 1.27 ± 0.19 (concentration: 0.5mM).
In the case of UniProt Q70UQ0 and related entries, the NP40-soluble protein abundance is, setting by setting: (concentration: 0.1mM) 0.973 ± 0.14; (concentration: 0.5mM) 0.915 ± 0.12.
On to PLD3 (UniProt Q8IV08), for which the NP40-soluble protein abundance turned out to be 0.92 ± 0.045 (concentration: 0.1mM) and 0.896 ± 0.076 (concentration: 0.5mM).
Turning to HS2ST1 (UniProt Q7LGA3), the NP40-soluble protein abundance reads like this: (concentration: 0.1mM) 1.02 ± 0.061; (concentration: 0.5mM) 1.12 ± 0.022.
The corresponding values for METAP1D (UniProt Q6UB28) are 1.06 ± 0.067 and 0.911 ± 0.12.
As for UniProt Q86WA8 and related entries, the NP40-soluble protein abundance is, setting by setting: (concentration: 0.1mM) 0.999 ± 0.07; (concentration: 0.5mM) 0.951 ± 0.054.
For the target CES3 (UniProt Q6UWW8), the NP40-soluble protein abundance was found to be 1.06 ± 0.1 (concentration: 0.1mM) and 1.01 ± 0.089 (concentration: 0.5mM).
Regarding CHMP1B (UniProt Q7LBR1), the NP40-soluble protein abundance by setting is: (concentration: 0.1mM) 0.963 ± 0.062; (concentration: 0.5mM) 0.936 ± 0.043.
The corresponding values for MED13L (UniProt Q71F56) are 0.999 ± 0.047 and 1.04 ± 0.048.
Consider UniProt Q7Z5L9 and related entries, for which the NP40-soluble protein abundance stood at 0.976 ± 0.03 (concentration: 0.1mM) and 0.9497 ± 0.0036 (concentration: 0.5mM).
On to BLOC1S3 (UniProt Q6QNY0), for which the NP40-soluble protein abundance reads like this: (concentration: 0.1mM) 0.95 ± 0.055; (concentration: 0.5mM) 0.918 ± 0.025.
The corresponding values for UniProt Q6ZSZ5 are 1.03 ± 0.022 and 1.02 ± 0.012.
Consider UniProt Q6Y1H2, for which the NP40-soluble protein abundance (concentration: 0.1mM) amounted to 1.06 ± 0.038 and the NP40-soluble protein abundance (concentration: 0.5mM) amounted to 1.02 ± 0.065.
The corresponding values for UniProt Q86TM6 and related entries are 0.997 ± 0.047 and 0.962 ± 0.021.
As to UniProt Q6UW63, the NP40-soluble protein abundance is, setting by setting: (concentration: 0.1mM) 1 ± 0.14; (concentration: 0.5mM) 0.998 ± 0.1.
As to SND1 (UniProt Q7KZF4), the NP40-soluble protein abundance by setting is: (concentration: 0.1mM) 1.03 ± 0.06; (concentration: 0.5mM) 1.05 ± 0.054.
As to ARHGAP30 (UniProt Q7Z6I6), the NP40-soluble protein abundance is, setting by setting: (concentration: 0.1mM) 0.977 ± 0.03; (concentration: 0.5mM) 1 ± 0.051.
Consider UniProt Q7Z2E3 and related entries, for which the NP40-soluble protein abundance was found to be 0.976 ± 0.051 (concentration: 0.1mM) and 1.01 ± 0.096 (concentration: 0.5mM).
With UniProt Q6PIJ6 and related entries, the NP40-soluble protein abundance runs as follows: (concentration: 0.1mM) 1.002 ± 0.0028; (concentration: 0.5mM) 1.02 ± 0.032.
The like results for CAND1 (UniProt Q86VP6) were, in that order, 0.987 ± 0.043 and 0.996 ± 0.024.
Consider UniProt Q7Z3B4 and related entries, for which the NP40-soluble protein abundance is 1.02 ± 0.031 (concentration: 0.1mM) and 1.01 ± 0.04 (concentration: 0.5mM).
Consider UniProt Q86UB9 and related entries, for which the NP40-soluble protein abundance came to 1.14 ± 0.14 (concentration: 0.1mM) and 1.05 ± 0.071 (concentration: 0.5mM).
The corresponding values for UniProt Q86WQ0 and related entries are 1.05 ± 0.12 and 1.08 ± 0.068.
In the case of TRAPPC5 (UniProt Q8IUR0), the NP40-soluble protein abundance was determined as 0.952 ± 0.036 (concentration: 0.1mM) and 0.904 ± 0.091 (concentration: 0.5mM).
The like results for UniProt Q6UWI4 were, in that order, 0.936 ± 0.12 and 0.865 ± 0.11.
In the case of MON1B (UniProt Q7L1V2), the NP40-soluble protein abundance by setting is: (concentration: 0.1mM) 0.973 ± 0.087; (concentration: 0.5mM) 0.953 ± 0.12.
As to APOOL (UniProt Q6UXV4), the NP40-soluble protein abundance by setting is: (concentration: 0.1mM) 0.986 ± 0.012; (concentration: 0.5mM) 0.972 ± 0.012.
Take UniProt Q6UUV7 and related entries: the NP40-soluble protein abundance reads like this: (concentration: 0.1mM) 1.02 ± 0.024; (concentration: 0.5mM) 0.957 ± 0.11.
The corresponding values for PARS2 (UniProt Q7L3T8) are 0.991 ± 0.041 and 1.05 ± 0.079.
In the case of UniProt Q7Z3U7 and related entries, the NP40-soluble protein abundance (concentration: 0.1mM) amounted to 0.982 ± 0.026 and the NP40-soluble protein abundance (concentration: 0.5mM) was 0.973 ± 0.053.
UniProt Q6ZNE5 and related entries: the NP40-soluble protein abundance by setting is: (concentration: 0.1mM) 0.93 ± 0.12; (concentration: 0.5mM) 0.962 ± 0.02.
For the target UniProt Q6UWE0 and related entries, the NP40-soluble protein abundance was found to be 1.05 ± 0.031 (concentration: 0.1mM) and 1.01 ± 0.045 (concentration: 0.5mM).
For ZDHHC13 (UniProt Q8IUH4), the NP40-soluble protein abundance runs as follows: (concentration: 0.1mM) 1.01 ± 0.071; (concentration: 0.5mM) 1.03 ± 0.037.
As to UniProt Q86W50, the NP40-soluble protein abundance is, setting by setting: (concentration: 0.1mM) 1.02 ± 0.025; (concentration: 0.5mM) 0.991 ± 0.03.
As to MICAL3 (UniProt Q7RTP6), the NP40-soluble protein abundance turned out to be 1.05 ± 0.093 (concentration: 0.1mM) and 0.959 ± 0.018 (concentration: 0.5mM).
DCP2 (UniProt Q8IU60): the NP40-soluble protein abundance is, setting by setting: (concentration: 0.1mM) 1.06 ± 0.019; (concentration: 0.5mM) 1.07 ± 0.026.
On to STXBP4 (UniProt Q6ZWJ1), for which the NP40-soluble protein abundance (concentration: 0.1mM) was 1.01 ± 0.03 and the NP40-soluble protein abundance (concentration: 0.5mM) came out at 1 ± 0.058.
For UniProt Q86W34 and related entries, the NP40-soluble protein abundance came to 0.998 ± 0.034 (concentration: 0.1mM) and 1.02 ± 0.049 (concentration: 0.5mM).
Regarding UniProt Q86UE8-2|Q86UE8-3, the NP40-soluble protein abundance runs as follows: (concentration: 0.1mM) 1 ± 0.015; (concentration: 0.5mM) 1.03 ± 0.034.
The corresponding values for DPP9 (UniProt Q86TI2) are 1.07 ± 0.086 and 1.05 ± 0.087.
Consider TMEM173 (UniProt Q86WV6), for which the NP40-soluble protein abundance by setting is: (concentration: 0.1mM) 1.03 ± 0.028; (concentration: 0.5mM) 1.03 ± 0.05.
The like results for UniProt Q6RFH5 and related entries were, in that order, 0.953 ± 0.065 and 0.99 ± 0.014.
Take CYFIP1 (UniProt Q7L576): the NP40-soluble protein abundance (concentration: 0.1mM) was 1.06 ± 0.091 and the NP40-soluble protein abundance (concentration: 0.5mM) turned out to be 1.07 ± 0.049.
As for “UniProt Q7Z4V5-2|Q7Z4V5 and related entries”, the NP40-soluble protein abundance reads like this: (concentration: 0.1mM) 0.948 ± 0.028; (concentration: 0.5mM) 0.838 ± 0.067.
The corresponding values for UniProt Q7Z7F0 are 0.994 ± 0.026 and 0.994 ± 0.03.
ANKMY2 (UniProt Q8IV38): the NP40-soluble protein abundance turned out to be 0.994 ± 0.04 (concentration: 0.1mM) and 1.01 ± 0.035 (concentration: 0.5mM).
The like results for PALB2 (UniProt Q86YC2) were, in that order, 0.984 ± 0.15 and 0.944 ± 0.12.
The like results for TSEN54 (UniProt Q7Z6J9) were, in that order, 1.03 ± 0.044 and 1.02 ± 0.049.
For the target NFXL1 (UniProt Q6ZNB6), the NP40-soluble protein abundance amounted to 1.04 ± 0.043 (concentration: 0.1mM) and 1 ± 0.061 (concentration: 0.5mM).
Consider RAB43 (UniProt Q86YS6), for which the NP40-soluble protein abundance is 1.03 ± 0.086 (concentration: 0.1mM) and 1.05 ± 0.059 (concentration: 0.5mM).
On to LDB1 (UniProt Q86U70), for which the NP40-soluble protein abundance was 1.03 ± 0.057 (concentration: 0.1mM) and 1 ± 0.059 (concentration: 0.5mM).
For SAMD1 (UniProt Q6SPF0), the NP40-soluble protein abundance is, setting by setting: (concentration: 0.1mM) 0.947 ± 0.081; (concentration: 0.5mM) 0.886 ± 0.059.
The corresponding values for UniProt Q8IUZ5 and related entries are 1.08 ± 0.16 and 0.978 ± 0.12.
Consider UniProt Q7Z4H7 and related entries, for which the NP40-soluble protein abundance runs as follows: (concentration: 0.1mM) 1.03 ± 0.013; (concentration: 0.5mM) 1.02 ± 0.037.
Take GLRX5 (UniProt Q86SX6): the NP40-soluble protein abundance (concentration: 0.1mM) is 0.819 ± 0.12 and the NP40-soluble protein abundance (concentration: 0.5mM) turned out to be 0.825 ± 0.18.
The like results for DYM (UniProt Q7RTS9) were, in that order, 0.988 ± 0.037 and 0.983 ± 0.021.
As for UniProt Q7Z4G4 and related entries, the NP40-soluble protein abundance stood at 1.07 ± 0.17 (concentration: 0.1mM) and 1.06 ± 0.097 (concentration: 0.5mM).
Turning to UniProt Q7KZ85 and related entries, the NP40-soluble protein abundance worked out at 1.04 ± 0.038 (concentration: 0.1mM) and 1.05 ± 0.047 (concentration: 0.5mM).
For UniProt Q6PJW8 and related entries, the NP40-soluble protein abundance runs as follows: (concentration: 0.1mM) 1.04 ± 0.031; (concentration: 0.5mM) 0.994 ± 0.032.
With STX12 (UniProt Q86Y82), the NP40-soluble protein abundance by setting is: (concentration: 0.1mM) 0.915 ± 0.035; (concentration: 0.5mM) 0.907 ± 0.079.
